Source: ChEMBL document CHEMBL3988442, “University of Dundee, Small-Polar-MMV Screening Library” (2021).

Sequences of proteins named here, by UniProt entry; tags and fusion partners are left off. Residues count along the entry.
UniProt P9WNZ1, whole entry: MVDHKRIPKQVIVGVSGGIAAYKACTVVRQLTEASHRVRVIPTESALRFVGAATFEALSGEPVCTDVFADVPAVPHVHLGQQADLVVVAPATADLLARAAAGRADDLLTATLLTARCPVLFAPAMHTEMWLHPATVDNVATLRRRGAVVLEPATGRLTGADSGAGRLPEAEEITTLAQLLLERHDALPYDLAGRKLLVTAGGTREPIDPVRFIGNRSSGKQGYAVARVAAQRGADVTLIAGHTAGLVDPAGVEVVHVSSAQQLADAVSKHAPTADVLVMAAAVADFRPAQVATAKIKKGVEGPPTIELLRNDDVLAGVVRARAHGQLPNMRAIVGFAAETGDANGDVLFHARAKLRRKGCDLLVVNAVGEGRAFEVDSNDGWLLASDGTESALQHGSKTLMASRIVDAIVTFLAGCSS
UniProt P9WFT3, whole entry: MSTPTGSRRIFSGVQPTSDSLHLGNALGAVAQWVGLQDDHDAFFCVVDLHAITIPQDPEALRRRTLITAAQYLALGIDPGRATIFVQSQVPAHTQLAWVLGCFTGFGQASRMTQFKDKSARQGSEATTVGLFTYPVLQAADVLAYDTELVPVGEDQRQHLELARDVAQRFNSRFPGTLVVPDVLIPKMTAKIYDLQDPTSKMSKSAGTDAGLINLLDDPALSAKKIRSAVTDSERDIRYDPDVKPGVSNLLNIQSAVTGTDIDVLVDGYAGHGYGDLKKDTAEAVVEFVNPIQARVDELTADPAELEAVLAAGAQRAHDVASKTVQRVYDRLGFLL
UniProt A4I591, 1-473: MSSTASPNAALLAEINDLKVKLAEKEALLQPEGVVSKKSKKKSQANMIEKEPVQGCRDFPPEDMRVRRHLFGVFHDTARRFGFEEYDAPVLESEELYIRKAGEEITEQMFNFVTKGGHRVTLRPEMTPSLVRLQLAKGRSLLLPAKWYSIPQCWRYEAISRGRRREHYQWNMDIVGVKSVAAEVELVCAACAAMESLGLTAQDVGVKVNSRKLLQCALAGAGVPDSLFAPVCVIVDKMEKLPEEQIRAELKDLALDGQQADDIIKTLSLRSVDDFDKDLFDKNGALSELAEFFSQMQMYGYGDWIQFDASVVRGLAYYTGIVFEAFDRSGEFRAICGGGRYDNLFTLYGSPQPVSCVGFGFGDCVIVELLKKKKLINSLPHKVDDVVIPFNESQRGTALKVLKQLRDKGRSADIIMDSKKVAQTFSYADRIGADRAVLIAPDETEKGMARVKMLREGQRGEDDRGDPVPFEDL

A: 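Enzyme assay of CoaBC with a phosphate dye (Biomol Green) read at 650 nm. Target: Coenzyme A biosynthesis protein CoaBC, Mycobacterium tuberculosis (UniProt P9WNZ1). Compounds at 30 µM. Direction is inferred from only a few compounds that gave an IC50; most scored high, so higher reads as stronger inhibition. Most strong results did not repeat in a second test. About 67,000 compounds were tested under these conditions; 0.06% (about 40) showed 50% or more at least once.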
B: 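Assay of Toxoplasma gondii numbers, read through their beta-galactosidase reporter with a colour substrate. Tested at 10 µM. The record gives no direction; the compounds picked for IC50 retests had high values, so higher reads as fewer parasites. About 67,000 compounds were tested under these conditions; 0.38% (about 260) showed 50% or more at least once.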
C: 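Cell assay of Leishmania donovani living inside macrophages; the read-out is not stated. Concentration: 30 µM. The record gives no direction; compounds that gave an IC50 in retests scored well above the rest, so higher reads as stronger inhibition. About 69,000 compounds were tested under these conditions; 1.5% (about 1,000) showed 50% or more at least once.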
D: 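Enzyme assay of tryptophanyl-tRNA synthetase; the read-out is not stated. Target: Tryptophan-tRNA ligase, Mycobacterium tuberculosis (UniProt P9WFT3). Compounds at 10 µM. Higher most likely means stronger inhibition; the record gives no direction and few retests gave an IC50. Size under these conditions: about 65,000 compounds, about 64 of them at 50% or above in at least one test.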
E: 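Enzyme assay of histidyl-tRNA synthetase; the read-out is not stated. Target: Histidine-tRNA ligase, Leishmania infantum (UniProt A4I591). Concentration: 30 µM. The record gives no direction; compounds that gave an IC50 in retests scored well above the rest, so higher reads as stronger inhibition. The assay is labelled LdHisRS but filed under L. infantum. About 69,000 compounds were tested under these conditions; 0.6% (about 410) showed 50% or more at least once.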

Values are the deposited “Percent Effect”, in %. The record does not define 0% and 100%; most values in the screen are far below 50% and negative numbers occur (in some assays of this library far below -100). This is an unselected part of the compounds tested. Two or more numbers in one place are separate tests of the same structure; such repeats can differ widely. A dash means the value is not listed here; it may have been measured.

SMILES | A | B | C | D | E
COc1ccc(-n2nc(C(C)C)nc2Cn2cncn2)cc1 | 5.115% | -2.372% | -2.255% | -0.315% | 16.39%
CC(C)(C)c1cccc(OCC(=O)NS(=O)(=O)c2cccnc2)c1 | 4.604% | -18.27% | -9.557% | 13.21% | 9.174%
[H][C@@]12CCN(C(=O)NC(C)C)CC[C@]1(C(=O)Nc1cccnc1)CCN2C | - | 1.32% | 28.54% | - | -
CCOCCCNC(=O)c1nnn(Cc2ccccc2)c1OC | -5.774% | 43.16% | -33.41% | 2.591% | 13.79%
Fc1ccc(CN2CCO[C@H]3[C@H](OCC4CC4)CC[C@@H]32)cc1 | 3.426% | - | - | -7.45% | 13.21%
CN(C)C(=O)[C@H]1CC[C@@H]2[C@@H](CCN2C(=O)N(C)C)O1 | - | - | - | -6.149% | 5.172%
O=C(CCN1CCCCO1)NCCSc1cnn[nH]1 | 2.263% | -1.787% | 49.04% | -8.551% | 5.376%
c1cnc(NCC2Cn3nnc(-c4ccsc4)c3CO2)nc1 (centres undefined) | -1.112% | -5.97% | 13.88% | -2.047% | 11%
Cc1cc(C)c(C)c(OCCCNC(=O)NC(C)c2nncn2C)c1 (centres undefined) | 1.512% | 1.969% | -10.01% | -0.895% | 3.306%
CS(=O)(=O)N1CCC(CNc2cc(Cl)ccc2C#N)CC1 | 2.913% | 1.188% | -23.6% | -0.3028% | 8.235%
CN(C)CCNc1c(-c2ccccc2)c(=O)c1=O | -5.402% | -1.914% | 2.641% | -3.902% | 16.44%
COC1(CNC(=O)c2ccc(F)c(F)c2)CCSC1 (centres undefined) | 2.672% | 32.37% | -9.062% | -1.633% | 0%
O=C(O)[C@@H]1CN(Cc2nc3ncccn3n2)C[C@H]1c1cccc(F)c1 | 4.224% | 22.85% | 5.945% | 5.45% | 12.7%
CCc1noc(CN2CCCC2c2noc(C3CC3)n2)n1 (centres undefined) | 6.287% | -3.274% | 11.72% | -2.739% | 19.05%
Cc1oc(C(=O)Nc2ccccc2F)cc1S(N)(=O)=O | 7.744% | 5.445% | -33.16% | -3.355% | 13.83%
COC(=O)c1c(Cl)c(C)nc2onc(C)c12 | 0% | -22.83% | -27.41% | 5.113% | 23.08%
Cc1ccc(CN2Cc3nnn(C)c3C(COCc3ccccn3)C2)s1 (centres undefined) | -3.951% | - | - | -3.176% | 18.06%
COc1ccccc1C1CCN(C(=O)CN2C(=O)OC(C)(C)C2=O)CC1 | 7.12% | 11.88% | 10.39% | 2.271% | 20%
Cc1csc(CN2CC[C@@](O)(C3CCOCC3)[C@H](C)C2)n1 | -0.1122% | 1.508% | 0.3504% | -3.75% | 4.301%
Cc1cc(C)nc(N2CCC(C(=O)O)(n3ccc(C(C)(C)C)n3)CC2)n1 | 3.061% | -16.75% | -0.1491% | 6.365% | 23.46%
Cc1ccccc1SCC(=O)N[C@H]1CC[C@H](n2cnnc2)CC1 | -1.217% | -27.1% | 17.37% | -0.6536% | 0%
COc1ccccc1OC1CN(C(=O)c2ccccc2C(C)=O)C1 | 3.165% | -4.4% | 12.36% | 2.311% | 1.205%
CC(=O)Nc1nc(C(=O)N2CCCC2c2noc(C(C)C)n2)cs1 (centres undefined) | 3.864% | -2.643% | -12.95% | -1.428% | 3.571%
CC(=O)N1CCc2[nH]cnc2C12CCN(C(=O)Cc1cccs1)CC2 | 1.272% | -4.09% | -5.023% and -1.27% | 5.817% | 7.692%
CN(C)C(CNC(=O)NCCc1cccc(O)c1)c1ccco1 (centres undefined) | -8.37% | 3.349% | 17.81% | 3.018% | 13.21%
COc1cc(C(=O)N(Cc2ccco2)C2CC2)cc(OC)c1OC | 7.025% | 10.7% | -13.25% | 7.893% | 13.39%
CC(=O)N[C@H]1CN(CC(=O)NCc2ccccc2C)C[C@@H]1C(C)C | 8.132% | -30.72% | 16.11% | 1.63% | 2.857%
NC(=O)NC(=O)CNc1cccc(C(=O)c2ccccc2)c1 | 1.167% | 5.568% | -27.17% | 3.799% | -2.703%
COCCN1CCN(Cc2csc(-c3cnn(C)c3)n2)CC1 | -4.436% | -4.026% | 26.06% | -5.21% | 8.929%
CC(C)(C)c1ncc2c(n1)CN(C(=O)c1ccc(C#N)nc1)C2 | 2.061% | 16.29% | -57.11% | -4.579% | 9.677%
COCCN1C[C@@H]2CCCO[C@@H]2[C@H](NC(=O)c2cnccn2)C1 | 2.157% | - | - | 0.5247% | 11.32%
CC1(C)OCC(CNC(=O)c2cnn(-c3ccc(Cl)cc3)c2N)O1 (centres undefined) | 3.01% | 7.289% | -22.14% | -6.75% | 11.43%
Cc1ccncc1C(=O)N1CCCC(C(=O)CCc2ccccc2)C1 (centres undefined) | 3.671% | 2.553% | -49.8% | -3.127% | -3.614%
CNc1cncc(C2CCCN(S(C)(=O)=O)C2)n1 (centres undefined) | 3.056% | -2.37% | -7.833% | -3.261% | 8.333%
Cc1ccc(OCC(=O)N2CCCC(n3nc(C)nc3C)C2)cc1 (centres undefined) | 3.226% | 25.86% | -4.901% | 3.7% | 1.739%
O=C(O)C(F)(F)F.[H][C@@]12COC[C@H](C(=O)N3CCCO3)[C@]1([H])CN(C1CCCC1)C2 | - | 0.9852% | -29.83% | - | -
O=C([C@@H]1COC[C@H]2CN(C3CCOCC3)C[C@H]21)N1CCCO1 | -7.419% | - | - | 1.58% | 2.778%
CCCc1cc(N2CCC(Cc3cccc(C(N)=O)c3)C2)nc(C)n1 (centres undefined) | 1.794% | 29.35% | 35.33% | 3.661% | 13.11%
CCC(NC(=O)c1coc(COc2cccc(F)c2F)n1)C(=O)NC (centres undefined) | 2.813% | 17.23% | 34.91% | -3.622% | 11.48%
Cc1ccccc1C(C)(C)CNC(=O)CN(C)c1cnccn1 | 1.071% | 0.1282% | -6.204% | -2.319% | 15.52%
CN(C)C(=O)N1CCn2c(Cn3cccn3)cnc2C1 | 2.538% | -5.801% | 7.566% | 0.08231% | 0%
CCc1cnc(NCC(C)Oc2cccnc2)nc1 (centres undefined) | 1.799% | 1.379% | 1.458% | -6.386% | 4.167%
CCOCC1CN(CCN2CCCCC2)Cc2cnn(C)c21 (centres undefined) | -0.2538% | - | - | -5.185% | 23.53%
COc1ccc(OCCNCc2c(C)nn(C)c2N(C)C)cc1 | 5.115% | - | - | 1.976% | 12.84%
CCOc1ccc(CSC(C)c2nc(C)no2)nc1 (centres undefined) | -1.141% | -10.85% | -18.62% | -0.2987% | 13.92%
O=C(O)C(F)(F)F.O=C(O)C(F)(F)F.O=C(O)C(F)(F)F.[H][C@@]12CN(Cc3ccncc3)C[C@]1([H])OCCN2CC1CCCO1 (some centres undefined) | - | -1% | 4.203% | - | -
[H][C@]12CCN(c3ncc(CC)cn3)C[C@@]1([H])OCCN(C(C)=O)C2 | - | 6.299% | -50.49% and -10.46% | - | -
O=C(O)C(F)(F)F.O=C(O)C(F)(F)F.O=C1CC2(CCN(Cc3cccnc3)C2)CN1c1cncnc1 (centres undefined) | - | 2.479% | 2.299% | - | -
Cc1ncc(C(=O)N2CCCC2(C)C(=O)N2CCOCC2)c(C)n1 (centres undefined) | 4.294% | 4.155% | 9.917% | -5.933% | 11.35%
Cc1cc(F)ccc1N1CCCC(NC2CCSCC2)C1=O (centres undefined) | 2.57% | 3.293% | 25.08% | 1.248% | 13.27%
COCCNC(=O)[C@@H]1CC[C@@H]2[C@@H](CCN2Cc2cnn(C)c2)O1 | 5.964% | - | - | -5.771% | 15.09%
CC(C)(CN)NS(=O)(=O)c1c(F)cccc1F | -4.839% | - | - | 0.2742% | 6.579%
Cc1nc([C@@H]2C[C@@H]3CCN(C(=O)c4ccnnc4)C[C@H]3O2)sc1C | 4.943% | - | - | -7.607% | 18.45%
OCCN1CCC(CNCc2ccc(N3CCCCC3)cc2)CC1 | 0.489% | 8.816% | 79.78% | -0.8614% | 14.52%
COCCN1CCOCC2(CCN(c3cnccn3)CC2)C1.O=C(O)C(F)(F)F | - | 7.684% | 25.28% | - | -
c1ccc(OCCCNCc2cccs2)nc1 | -1.493% | 19.4% | 58.66% | 8.029% | 19.47%
COCCCN1CCN(CC2CCCO2)CC1 (centres undefined) | 2.479% | 7.907% | -20.79% | -0.2172% | 8.036%
CC(C)OCCCN(Cc1ccncc1)Cc1cccc(F)c1.Cl | - | -5.211% | -14.68% and 3.787% | - | -
CCc1[nH]nc(NC(=O)c2cc[nH]n2)c1C | 5.058% | -1.818% | 16.05% | 1.709% | 15.32%

For reference, 6 entries once more:

| SMILES | A | B | C | D | E |
|---|---|---|---|---|---|
| `CCOc1ccc(CSC(C)c2nc(C)no2)nc1` (centres undefined) | -1.141% | -10.85% | -18.62% | -0.2987% | 13.92% |
| `CCC(NC(=O)c1coc(COc2cccc(F)c2F)n1)C(=O)NC` (centres undefined) | 2.813% | 17.23% | 34.91% | -3.622% | 11.48% |
| `COCCN1C[C@@H]2CCCO[C@@H]2[C@H](NC(=O)c2cnccn2)C1` | 2.157% | - | - | 0.5247% | 11.32% |
| `Cc1csc(CN2CC[C@@](O)(C3CCOCC3)[C@H](C)C2)n1` | -0.1122% | 1.508% | 0.3504% | -3.75% | 4.301% |
| `Cc1cc(F)ccc1N1CCCC(NC2CCSCC2)C1=O` (centres undefined) | 2.57% | 3.293% | 25.08% | 1.248% | 13.27% |
| `CN(C)C(=O)N1CCn2c(Cn3cccn3)cnc2C1` | 2.538% | -5.801% | 7.566% | 0.08231% | 0% |